Values from PubChem BioAssay AID1224828 (NIAID, 2016)
Purpose: 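Find genes required for NF-kappaB p65 moving into the nucleus after LPS in mouse macrophages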 (primary screen). System: mouse RAW264.7 G9 macrophage reporter cells (GFP-p65, Tnf promoter-mCherry). Knock-down reagent: siRNA pool against mouse genes, 100 nM. Time to read-out: 2 days siRNA transfection, then 40 min LPS before fixation. Conditions: LPS (Salmonella minnesota R595) at 10 ng/ml. Read-out: 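Microscopy ratio of nuclear to perinuclear-ring GFP-p65 signal, scaled to the plate median; gene score is the average of two replicate robust z-scores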. Scale: p65 translocation robust z-score: higher = more nuclear NF-kappaB p65 after LPS than the plate median; nuclear/cytoplasmic p65 ratio: higher = more nuclear NF-kappaB p65. Rule for the call: 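Called active when z exceeds 3.3 or falls under -1.56 (median of Tlr4 controls), giving activity score of at least 50; no calls for control wells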. Calls: active = hit (p65 shift raised or lowered); inactive = no clear change.
Shown is a random part of about 17,000 reagents. Of all reagents, 762 (4.5%) are marked active. 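Active calls include both raised and lowered p65 entry, mostly lowered; wells with fewer than 50 cells lack a z-score.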 Raw values vary from plate to plate and are shown uncorrected.

target gene	p65 translocation robust z-score	nuclear/cytoplasmic p65 ratio, rep 1	nuclear/cytoplasmic p65 ratio, rep 2	low cell count flag	Call
Or5p66		1.45	2.08	fewer than 50 cells per well; well left out of scoring	inactive
Tnfrsf19	-0.49	1.5	1.4	enough cells to score	inactive
Phf1	0.02	1.5	1.41	enough cells to score	inactive
Elavl4	-0.95	1.32	1.26	enough cells to score	inactive
Aipl1	1.1	1.79	1.78	enough cells to score	inactive
Umod		1.24	1.21	fewer than 50 cells per well; well left out of scoring	inactive
Fzr1	-0.42	1.43	1.34	enough cells to score	inactive
H2-M3	1.18	1.83	1.71	enough cells to score	inactive
Cpb2	-0.56	1.37	1.34	enough cells to score	inactive
Ddt	-1.01	1.4	1.55	enough cells to score	inactive
Hopx	-3.03	1.24	1.06	enough cells to score	active
Slc25a22		1.29	1.15	fewer than 50 cells per well; well left out of scoring	inactive
Reep1		1.31	1.52	fewer than 50 cells per well; well left out of scoring	inactive
Spcs1	-0.85	1.31	1.28	enough cells to score	inactive
Hcar1	-2.82	1.17	1.11	enough cells to score	active
Rxfp2	-0.25	1.47	1.54	enough cells to score	inactive
H2ac1	1.08	1.82	1.69	enough cells to score	inactive
Mllt3	0.27	1.76	1.69	enough cells to score	inactive
A030005K14Rik	-1.22	1.18	1.4	enough cells to score	inactive
Siglec1		1.24	1.19	fewer than 50 cells per well; well left out of scoring	inactive
Igsf11	-0.67	1.48	1.32	enough cells to score	inactive
Ell	2.24	1.69	1.72	enough cells to score	inactive
Rps6kc1	-2.11	1.23	1.53	enough cells to score	active
Cpxm2	0.37	1.62	1.86	enough cells to score	inactive
Fgf23	-0.17	1.35	1.41	enough cells to score	inactive
Bglap3		1.18	1.5	fewer than 50 cells per well; well left out of scoring	inactive
Or51af1		1.7	1.57	fewer than 50 cells per well; well left out of scoring	inactive
Or7g35		1.25	1.46	fewer than 50 cells per well; well left out of scoring	inactive
Spsb4		1.39	1.13	fewer than 50 cells per well; well left out of scoring	inactive
Prkn	0.96	1.52	1.59	enough cells to score	inactive
Fshb	-1.77	1.19	1.17	enough cells to score	active
Chrna7	-0.23	1.49	1.3	enough cells to score	inactive
Timm21	0.03	1.6	1.64	enough cells to score	inactive
Psma5		1.13	0.951	fewer than 50 cells per well; well left out of scoring	inactive
Opa1	0.03	1.45	1.42	enough cells to score	inactive
Or2a20	1.31	1.68	1.37	enough cells to score	inactive
Siglecg	-0.4	1.49	1.49	enough cells to score	inactive
Fam20c	-0.73	1.54	1.63	enough cells to score	inactive
Rap1b		2.12	1.34	fewer than 50 cells per well; well left out of scoring	inactive
Sar1a		1.47	1.18	fewer than 50 cells per well; well left out of scoring	inactive
Pcdhb1		1.18	1.43	fewer than 50 cells per well; well left out of scoring	inactive
Nrm	0.17	1.83	1.48	enough cells to score	inactive
Isca1	-0.63	1.51	1.49	enough cells to score	inactive
Chtop	-0.79	1.3	1.22	enough cells to score	inactive
Mgat1	0.59	1.84	1.6	enough cells to score	inactive
Rpl35a		1.54	1.22	fewer than 50 cells per well; well left out of scoring	inactive
Ldlrad4	-0.53	1.42	1.54	enough cells to score	inactive
Zbtb24		1.39	1.52	fewer than 50 cells per well; well left out of scoring	inactive
Zfp788		1.28	1.02	fewer than 50 cells per well; well left out of scoring	inactive
Dph6		1.37	1.55	fewer than 50 cells per well; well left out of scoring	inactive
Gpr34	-0.35	1.43	1.56	enough cells to score	inactive
Myoz2	0.35	1.79	1.69	enough cells to score	inactive
Serping1	-0.07	1.53	1.56	enough cells to score	inactive
Pudp	-0.88	1.34	1.24	enough cells to score	inactive
Fitm1	-0.78	1.32	1.45	enough cells to score	inactive
Cox14		1.28	1.25	fewer than 50 cells per well; well left out of scoring	inactive
Hpcal4	1.2	1.8	1.74	enough cells to score	inactive
Ankrd61		2.65	1.28	fewer than 50 cells per well; well left out of scoring	inactive
Elac1	-1.25	1.32	1.18	enough cells to score	inactive

Reagents above called active (4):
target gene	p65 translocation robust z-score	nuclear/cytoplasmic p65 ratio, rep 1	nuclear/cytoplasmic p65 ratio, rep 2	low cell count flag	Call
Hopx	-3.03	1.24	1.06	enough cells to score	active
Hcar1	-2.82	1.17	1.11	enough cells to score	active
Rps6kc1	-2.11	1.23	1.53	enough cells to score	active
Fshb	-1.77	1.19	1.17	enough cells to score	active
